We go through 15 substances from EP0625164 (dated 1993).

For some assays here: Some peptides are written in HELM: one residue between dots, names in brackets for other building blocks, links after the first $.

The nature of data set [1]: general procedure: Boc solid-phase peptide synthesis; oxime resin (substitution level = 0.96 mmol/g); HBTU / N-methylmorpholine. The settings on record: for isolated yield / crude mass / crude yield: whole synthesis; for isolated yield: overall.
Data set [2] in a line: general procedure: Boc solid-phase peptide synthesis; oxime resin; HBTU / N-methylmorpholine. The conditions noted are these: whole synthesis, scale 1.05 mmol, TFA salt.
The mark [3] stands for this setting: late stage modification step, TFA salt.
[4] abbreviates: late stage modification step, acetate salt.
Where [5] appears, read: purification step, TFA salt, run 1.

As for “PEPTIDE1{[dVal].[NMeArg].[Gly].[Asp].[Mamb]}$PEPTIDE1,PEPTIDE1,5:R2-1:R1$$$V2.0”, the step yield is 70% in data set [1] (setting [3]); 24% recovery in data set [1] (purification step, TFA salt); 82% in the data set “peptide synthesis” (setting [4]); “approximately 40%” in the data set “peptide synthesis” (purification step, TFA salt). The isolated yield entry in data set [1] (TFA salt) is given as “overall yield 9.4%”. In addition, the crude mass in data set [1] (scale 0.101 mmol, TFA salt) came to 49 mg. The crude yield in data set [1] (scale 0.101 mmol, TFA salt) is 60%.
Turning to “cyclo(·D-Val-NmeArg(Tos) -Gly-Asp (OcHex)-MAMB)”, in data set [1] (cyclisation step, TFA salt), the cyclisation yield turned out to be 86%.
As for cyclo-(D-Abu-NMeArg-Gly-Asp-iodo-Mamb), the step yield in data set [1] (purification step, TFA salt) is 28.7%. For the same substance, the isolated yield in data set [1] (TFA salt) was determined as 30.2%. Further, in data set [1] (scale 3.53 mmol, TFA salt), the crude mass was 4070 mg.
cyclo-(D-Val-NMeAmf-Gly-Asp-Mamb): in data set [1] (purification step, TFA salt), the step yield is reported as 8.1%. In data set [1] (TFA salt), the isolated yield came to 4.1%. For the same substance, in data set [1] (scale 0.586 mmol, TFA salt), the crude mass turned out to be 189 mg and the crude yield stood at 39.9%.
Take “cyclo-(D-Val-NMeArg-Gly-Asp-3-aminomethyl-4-methoxybenzoic acid)”: the step yield in data set [1] (setting [3]) stood at 32%.
The same measure, in the same setting: next, “cyclo-(D-Val-NMeArg-Gly-Asp-3-aminomethyl-4-methylbenzoic acid)”: 42%; “cyclo-(D-Val-NMeArg-Gly-Asp-3-aminomethyl-6-chlorobenzoic acid)”: 54%.
Still for that read-out and setting: next, “cyclo-(D-Val-NMeArg-Gly-Asp-3-aminomethyl-6-iodobenzoic acid)”: 46%; “cyclo-(D-Val-NMeArg-Gly-Asp-3-aminomethyl-6-methylbenzoic acid)”: 27%.
Consider “cyclo-(D-Val-NMeArg-Gly-Asp-4-aminomethylbenzoic acid) [87]”, for which the step yield in data set [1] (setting [5]) turned out to be 17.1%. Further, in data set [1] (TFA salt, run 1), the isolated yield is reported as 9.3%.
In the same order, the values of “cyclo-(D-Val-NMeArg-Gly-Asp-4-aminomethylbenzoic acid) [88]” are 13.4% and 7.3%.
“cyclo-(D-Val-NMeArg-Gly-Asp-aminomethylnaphthoic acid)”: in data set [1] (purification step, TFA salt), the step yield is on record as 12.1%. Further, in data set [1] (TFA salt), the isolated yield stood at 7.8%. For the same substance, in data set [1] (scale 0.737 mmol, TFA salt), the crude yield was determined as 73.1%.
In the case of cyclo-(D-Val-NMeArg-Gly-Asp-iodo-Mamb), the step yield in data set [1] (setting [4]) is 95.6%. The step yield in data set [1] (purification step, TFA salt) came out at 39.7% recovery. In addition, the isolated yield entry in data set [1] (TFA salt) was “overall yield 16.6%”. For the same substance, in data set [2], the crude mass is reported as 460 mg and the crude yield is 46.8%.
For the substance cyclo-(D-Val-NMeArg-L-Ala-Asp-Mamb), the step yield in data set [1] (late stage modification step, fluoride salt) is on record as 83%. For the same substance, the step yield in data set [1] (purification step, TFA salt) is 19.9%. The isolated yield in data set [1] (TFA salt) worked out at 10.6%. Further, in data set [1] (scale 0.611 mmol, TFA salt), the crude mass is 375 mg and the crude yield is given as 74.6%.
With “cyclo-(D-val-NMeArg-Gly-Asp-3-aminomethyl-6-methoxybenzoic acid)”, the step yield in data set [1] (setting [3]) came to 63%.
